# From the supplement of paper PMC10849652
# Chains of the proteins cited; added tags and fusions are not shown. Lines headed by an entry give the natural chain unless they say otherwise; changes in a name come on top.
# UniProt P12318: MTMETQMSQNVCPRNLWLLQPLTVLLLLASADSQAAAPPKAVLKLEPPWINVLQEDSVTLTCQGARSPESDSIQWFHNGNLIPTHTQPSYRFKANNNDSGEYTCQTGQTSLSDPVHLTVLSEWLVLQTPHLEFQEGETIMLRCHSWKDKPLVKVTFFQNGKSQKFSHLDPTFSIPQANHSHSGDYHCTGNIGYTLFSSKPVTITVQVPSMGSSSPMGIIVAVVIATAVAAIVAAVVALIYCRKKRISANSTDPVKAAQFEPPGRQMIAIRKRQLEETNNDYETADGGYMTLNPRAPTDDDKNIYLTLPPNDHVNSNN
# UniProt O75955: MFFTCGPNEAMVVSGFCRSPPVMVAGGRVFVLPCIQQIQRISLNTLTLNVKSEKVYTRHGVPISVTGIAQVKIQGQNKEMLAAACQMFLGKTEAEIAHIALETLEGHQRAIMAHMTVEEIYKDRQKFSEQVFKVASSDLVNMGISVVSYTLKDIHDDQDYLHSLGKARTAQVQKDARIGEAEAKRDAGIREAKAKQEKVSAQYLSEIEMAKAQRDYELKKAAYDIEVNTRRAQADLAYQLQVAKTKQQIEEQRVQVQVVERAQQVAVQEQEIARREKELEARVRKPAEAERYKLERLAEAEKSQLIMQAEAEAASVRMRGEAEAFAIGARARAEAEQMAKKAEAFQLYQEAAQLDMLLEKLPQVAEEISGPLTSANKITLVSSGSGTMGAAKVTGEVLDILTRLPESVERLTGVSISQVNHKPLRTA
# UniProt Q6P3S6: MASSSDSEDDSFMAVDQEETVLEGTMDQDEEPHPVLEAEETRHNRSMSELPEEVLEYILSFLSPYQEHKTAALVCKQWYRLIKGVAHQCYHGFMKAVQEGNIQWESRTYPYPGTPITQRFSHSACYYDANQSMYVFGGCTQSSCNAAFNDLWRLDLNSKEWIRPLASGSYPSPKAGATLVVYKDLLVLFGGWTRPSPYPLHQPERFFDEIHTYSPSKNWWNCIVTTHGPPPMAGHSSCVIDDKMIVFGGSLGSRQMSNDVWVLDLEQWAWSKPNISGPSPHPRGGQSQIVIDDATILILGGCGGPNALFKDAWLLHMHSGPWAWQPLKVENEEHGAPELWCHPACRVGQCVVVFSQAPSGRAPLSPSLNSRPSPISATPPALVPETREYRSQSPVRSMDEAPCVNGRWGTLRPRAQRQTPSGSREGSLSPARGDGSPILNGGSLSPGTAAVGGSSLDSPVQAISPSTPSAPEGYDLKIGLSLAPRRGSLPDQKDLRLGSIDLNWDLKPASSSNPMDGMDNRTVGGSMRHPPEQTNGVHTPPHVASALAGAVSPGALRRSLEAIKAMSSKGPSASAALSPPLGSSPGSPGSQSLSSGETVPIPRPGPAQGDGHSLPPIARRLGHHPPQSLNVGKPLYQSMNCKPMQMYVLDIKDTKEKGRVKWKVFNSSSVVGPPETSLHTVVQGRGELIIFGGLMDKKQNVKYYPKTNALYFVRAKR
# UniProt Q96IG2: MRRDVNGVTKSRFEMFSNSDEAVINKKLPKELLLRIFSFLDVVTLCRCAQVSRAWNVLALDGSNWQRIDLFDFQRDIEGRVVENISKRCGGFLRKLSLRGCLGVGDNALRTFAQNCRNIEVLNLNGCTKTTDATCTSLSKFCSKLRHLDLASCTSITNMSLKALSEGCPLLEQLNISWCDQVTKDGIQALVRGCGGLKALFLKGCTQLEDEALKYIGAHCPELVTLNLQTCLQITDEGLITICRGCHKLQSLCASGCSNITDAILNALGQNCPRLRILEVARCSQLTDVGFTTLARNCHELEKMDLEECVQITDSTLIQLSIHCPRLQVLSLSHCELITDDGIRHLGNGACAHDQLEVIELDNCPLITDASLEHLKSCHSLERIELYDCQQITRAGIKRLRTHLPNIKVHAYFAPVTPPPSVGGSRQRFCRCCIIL
# UniProt Q9NXK8: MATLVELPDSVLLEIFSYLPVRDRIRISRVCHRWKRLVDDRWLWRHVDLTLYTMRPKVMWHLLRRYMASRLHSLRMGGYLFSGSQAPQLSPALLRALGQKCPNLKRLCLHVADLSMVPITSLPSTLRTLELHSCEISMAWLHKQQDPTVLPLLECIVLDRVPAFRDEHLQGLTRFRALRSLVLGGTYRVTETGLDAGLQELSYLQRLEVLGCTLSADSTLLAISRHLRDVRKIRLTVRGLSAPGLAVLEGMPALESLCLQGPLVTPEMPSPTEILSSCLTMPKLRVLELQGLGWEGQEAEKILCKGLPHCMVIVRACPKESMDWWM
# UniProt P0C5J1: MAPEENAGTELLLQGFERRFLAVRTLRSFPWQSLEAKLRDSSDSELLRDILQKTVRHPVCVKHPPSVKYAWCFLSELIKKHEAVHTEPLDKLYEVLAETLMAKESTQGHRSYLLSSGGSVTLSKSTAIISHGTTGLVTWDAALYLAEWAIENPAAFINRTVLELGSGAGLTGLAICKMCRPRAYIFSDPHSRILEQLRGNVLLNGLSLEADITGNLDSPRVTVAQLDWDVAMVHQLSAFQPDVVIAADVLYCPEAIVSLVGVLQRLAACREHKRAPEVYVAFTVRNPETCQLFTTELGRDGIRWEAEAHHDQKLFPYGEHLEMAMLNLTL
# UniProt Q8NB91: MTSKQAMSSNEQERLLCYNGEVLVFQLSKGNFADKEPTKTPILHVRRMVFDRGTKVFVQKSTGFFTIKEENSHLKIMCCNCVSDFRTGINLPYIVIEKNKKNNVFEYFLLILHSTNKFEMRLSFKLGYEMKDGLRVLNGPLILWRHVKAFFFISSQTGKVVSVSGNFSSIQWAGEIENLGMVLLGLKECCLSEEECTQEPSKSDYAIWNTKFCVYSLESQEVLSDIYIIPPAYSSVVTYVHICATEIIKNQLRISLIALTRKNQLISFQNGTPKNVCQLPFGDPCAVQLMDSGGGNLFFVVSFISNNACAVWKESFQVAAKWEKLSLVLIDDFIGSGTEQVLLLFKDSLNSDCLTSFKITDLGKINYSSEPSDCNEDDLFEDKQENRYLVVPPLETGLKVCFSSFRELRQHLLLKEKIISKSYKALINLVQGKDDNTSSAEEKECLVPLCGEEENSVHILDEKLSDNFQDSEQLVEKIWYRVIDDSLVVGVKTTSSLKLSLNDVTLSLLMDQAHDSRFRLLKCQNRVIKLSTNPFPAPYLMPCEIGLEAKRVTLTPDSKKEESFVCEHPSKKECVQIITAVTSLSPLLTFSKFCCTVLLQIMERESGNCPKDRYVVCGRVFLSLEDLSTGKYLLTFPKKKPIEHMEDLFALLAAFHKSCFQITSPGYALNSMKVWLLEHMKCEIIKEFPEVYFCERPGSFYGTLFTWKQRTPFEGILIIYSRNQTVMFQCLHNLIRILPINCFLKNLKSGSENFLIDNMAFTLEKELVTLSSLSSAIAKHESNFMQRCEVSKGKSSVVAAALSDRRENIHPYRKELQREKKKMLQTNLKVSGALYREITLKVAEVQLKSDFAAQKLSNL
# UniProt Q14318: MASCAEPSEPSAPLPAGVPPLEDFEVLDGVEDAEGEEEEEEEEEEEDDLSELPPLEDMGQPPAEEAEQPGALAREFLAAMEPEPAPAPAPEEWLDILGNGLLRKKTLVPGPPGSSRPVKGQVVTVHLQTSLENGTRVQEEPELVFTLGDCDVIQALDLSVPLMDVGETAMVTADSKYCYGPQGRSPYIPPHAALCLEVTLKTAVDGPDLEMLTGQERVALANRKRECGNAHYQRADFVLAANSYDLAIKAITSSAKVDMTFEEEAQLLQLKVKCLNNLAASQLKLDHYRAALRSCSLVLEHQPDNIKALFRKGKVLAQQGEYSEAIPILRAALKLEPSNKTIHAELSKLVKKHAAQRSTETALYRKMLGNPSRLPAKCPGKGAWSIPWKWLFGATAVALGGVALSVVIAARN
# UniProt P22830: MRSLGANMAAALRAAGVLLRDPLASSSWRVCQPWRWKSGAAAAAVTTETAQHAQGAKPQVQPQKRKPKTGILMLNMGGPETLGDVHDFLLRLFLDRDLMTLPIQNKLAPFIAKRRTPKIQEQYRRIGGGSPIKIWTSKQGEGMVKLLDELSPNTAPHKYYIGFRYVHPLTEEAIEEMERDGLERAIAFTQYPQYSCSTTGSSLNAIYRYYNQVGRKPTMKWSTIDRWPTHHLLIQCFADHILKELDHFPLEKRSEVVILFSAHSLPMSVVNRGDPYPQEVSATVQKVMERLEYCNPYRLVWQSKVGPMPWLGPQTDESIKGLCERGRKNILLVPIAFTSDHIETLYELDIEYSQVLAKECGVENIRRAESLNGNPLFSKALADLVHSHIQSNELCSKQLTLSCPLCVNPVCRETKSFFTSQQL
# UniProt Q9NVI1: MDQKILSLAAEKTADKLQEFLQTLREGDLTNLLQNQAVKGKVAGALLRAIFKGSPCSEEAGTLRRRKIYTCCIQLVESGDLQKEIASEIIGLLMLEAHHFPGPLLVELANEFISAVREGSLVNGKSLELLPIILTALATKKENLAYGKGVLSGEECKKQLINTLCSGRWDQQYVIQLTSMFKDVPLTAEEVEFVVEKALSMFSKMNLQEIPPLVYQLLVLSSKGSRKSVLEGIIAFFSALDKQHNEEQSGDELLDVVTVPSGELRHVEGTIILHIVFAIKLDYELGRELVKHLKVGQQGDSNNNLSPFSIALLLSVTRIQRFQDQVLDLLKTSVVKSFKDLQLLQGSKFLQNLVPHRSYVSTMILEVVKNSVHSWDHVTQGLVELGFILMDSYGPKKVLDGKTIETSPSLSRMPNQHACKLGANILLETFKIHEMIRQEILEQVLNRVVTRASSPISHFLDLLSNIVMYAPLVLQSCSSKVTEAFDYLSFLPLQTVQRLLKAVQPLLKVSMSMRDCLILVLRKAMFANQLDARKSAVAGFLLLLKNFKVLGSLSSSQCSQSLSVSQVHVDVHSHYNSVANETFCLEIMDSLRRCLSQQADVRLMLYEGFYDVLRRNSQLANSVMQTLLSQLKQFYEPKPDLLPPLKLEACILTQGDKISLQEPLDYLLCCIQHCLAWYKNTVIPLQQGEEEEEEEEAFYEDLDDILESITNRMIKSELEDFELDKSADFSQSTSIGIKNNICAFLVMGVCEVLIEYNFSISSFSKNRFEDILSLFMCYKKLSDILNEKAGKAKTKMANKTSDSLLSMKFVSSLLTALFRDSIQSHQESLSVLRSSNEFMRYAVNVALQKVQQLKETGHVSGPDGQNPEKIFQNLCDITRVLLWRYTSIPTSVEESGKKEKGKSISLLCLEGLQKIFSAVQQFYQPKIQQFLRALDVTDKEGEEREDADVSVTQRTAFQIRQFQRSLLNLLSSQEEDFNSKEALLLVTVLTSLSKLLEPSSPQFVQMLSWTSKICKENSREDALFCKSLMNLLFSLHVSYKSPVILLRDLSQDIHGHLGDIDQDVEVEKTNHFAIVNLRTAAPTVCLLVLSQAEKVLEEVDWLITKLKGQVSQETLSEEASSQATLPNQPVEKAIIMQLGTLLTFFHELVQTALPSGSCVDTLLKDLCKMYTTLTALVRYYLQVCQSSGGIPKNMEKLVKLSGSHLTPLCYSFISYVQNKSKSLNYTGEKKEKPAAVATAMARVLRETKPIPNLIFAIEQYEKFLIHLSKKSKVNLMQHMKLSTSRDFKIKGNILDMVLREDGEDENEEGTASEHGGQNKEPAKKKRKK
# UniProt Q9UIM3: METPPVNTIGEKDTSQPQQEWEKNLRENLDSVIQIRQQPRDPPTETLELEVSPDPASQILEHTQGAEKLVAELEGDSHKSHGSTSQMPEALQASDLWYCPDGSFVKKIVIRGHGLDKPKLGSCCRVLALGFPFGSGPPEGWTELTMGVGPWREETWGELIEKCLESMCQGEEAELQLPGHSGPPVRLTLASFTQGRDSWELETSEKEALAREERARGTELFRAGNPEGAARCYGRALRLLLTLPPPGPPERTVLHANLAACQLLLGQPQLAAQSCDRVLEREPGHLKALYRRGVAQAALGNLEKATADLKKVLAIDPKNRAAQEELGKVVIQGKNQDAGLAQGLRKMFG
# UniProt Q96HJ9: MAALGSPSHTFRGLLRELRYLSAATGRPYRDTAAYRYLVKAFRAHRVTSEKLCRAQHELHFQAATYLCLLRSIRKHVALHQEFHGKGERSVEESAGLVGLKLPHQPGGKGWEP
# UniProt Q5XUX1: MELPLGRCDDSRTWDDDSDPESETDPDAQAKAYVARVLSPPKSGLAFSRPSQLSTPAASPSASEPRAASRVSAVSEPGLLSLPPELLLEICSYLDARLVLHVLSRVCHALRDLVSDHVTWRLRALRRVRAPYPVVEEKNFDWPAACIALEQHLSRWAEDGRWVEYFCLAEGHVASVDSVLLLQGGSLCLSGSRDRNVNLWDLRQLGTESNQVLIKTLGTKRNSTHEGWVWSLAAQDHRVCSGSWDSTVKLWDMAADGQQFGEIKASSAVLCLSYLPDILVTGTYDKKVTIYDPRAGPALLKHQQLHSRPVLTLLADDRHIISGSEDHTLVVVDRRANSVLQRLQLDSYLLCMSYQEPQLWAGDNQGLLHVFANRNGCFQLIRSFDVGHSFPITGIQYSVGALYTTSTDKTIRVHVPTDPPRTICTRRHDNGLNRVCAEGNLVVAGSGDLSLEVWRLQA
# This is one part of the list.
# Compound: CC1=C2C(=CC=C1)N=C(N(C2=O)C3=CC=CC=C3C)CN4C=NC5=C(N=CN=C54)N
# Experiment: log2 fold change, soluble protein after heating vs DMSO (PISA); higher = thermal stabilisation; K562 lysate, 10 uM; active = over 0.2 and 3.5 SD of the protein, either way, in both replicates (recomputed)
# Method in brief: (§1)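 K562 pellets were dounce-homogenised in PBS pH 7.4 containing 1 mM MgCl2, and the crude extract, at 1 mg/mL protein, was exposed to 10 μM compound for 30 min. Aliquots were heated for 3 min across 48°C-58°C, pooled, brought to 0.5% NP-40 at 4°C and spun at 21,000xg for 90 min, with the supernatant taken as soluble protein. TMTpro 16plex LC-MS/MS with equalised channel sums quantified that protein. Values are log-two fold changes in thermal stability relative to solvent controls, taken from duplicates.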
row,Target,log2 fold change
1,FCGR2A (UniProt P12318),inactive: 0.017
2,FLOT1 (UniProt O75955),inactive: 0.038
3,FBXO42 (UniProt Q6P3S6),inactive: 0.011
4,FBXL20 (UniProt Q96IG2),inactive: -0.021
5,FBXL12 (UniProt Q9NXK8),inactive: -0.015
6,FGD6 (UniProt Q6ZV73),inactive: -0.768
7,FBRS (UniProt J3KNZ9),inactive: 0.001
8,FAM86B2 (UniProt P0C5J1),inactive: -0.083
9,FANCB (UniProt Q8NB91),inactive: 0.064
10,FKBP8 isoform 2 (UniProt Q14318),inactive: -0.023
11,FECH isoform 2 (UniProt P22830),inactive: -0.126
12,FANCI (UniProt Q9NVI1),inactive: 0.029
13,FKBPL (UniProt Q9UIM3),inactive: 0.024

# Compound: Cc1sc2c(c1C)C(c1ccc(Cl)cc1)=N[C@@H](CC(=O)OC(C)(C)C)c1nnc(C)n1-2
# Experiment: as above
# Method in brief: as §1
row,Target,log2 fold change
1,FGGY isoform 3 (UniProt Q96C11),inactive: -0.093
2,FHL3 (UniProt Q13643),inactive: -0.014
3,FEZ2 isoform 2 (UniProt Q9UHY8),inactive: -0.013
4,FARP1 isoform 2 (UniProt Q9Y4F1),inactive: -0.017
5,FBL (UniProt P22087),inactive: 0.003
6,FN3K (UniProt Q9H479),inactive: -0.023
7,FERMT3 (UniProt Q86UX7),inactive: -0.01
8,FNBP1L (UniProt Q5T0N5),inactive: -0.032
9,FDXR isoform 7 (UniProt P22570),inactive: 0.068
10,FDX2 (UniProt Q6P4F2),inactive: 0.062
11,FKBP15 (UniProt Q5T1M5),inactive: -0.022
12,FAM89A (UniProt Q96GI7),inactive: -0.007
13,FLT4 (UniProt P35916),inactive: 0.098
14,FIG4 (UniProt Q92562),inactive: 0.039
15,FEN1 (UniProt P39748),inactive: 0.024
16,FAM98A (UniProt Q8NCA5),inactive: 0.016
17,FLNB isoform 8 (UniProt O75369),inactive: -0.017

row,Target,log2 fold change
1,FH (UniProt P07954),inactive: 0.044
2,FMC1 (UniProt Q96HJ9),inactive: 0.065
3,FAM98B (UniProt Q52LJ0),inactive: 0.042
4,FBXW9 (UniProt Q5XUX1),inactive: -0.095
5,FLVCR1 (UniProt Q9Y5Y0),inactive: 0.172
6,FCGR2A (UniProt P12318),inactive: -0.018
7,FLOT1 (UniProt O75955),inactive: -0.008
8,FBXO42 (UniProt Q6P3S6),inactive: 0.207
9,FBXL20 (UniProt Q96IG2),inactive: -0.024
10,FBXL12 (UniProt Q9NXK8),inactive: 0.041
11,FGD6 (UniProt Q6ZV73),inactive: 0.036
12,FBRS (UniProt J3KNZ9),inactive: -0.019
13,FANCB (UniProt Q8NB91),inactive: 0.1
14,FKBP8 isoform 2 (UniProt Q14318),inactive: -0.084
15,FECH isoform 2 (UniProt P22830),inactive: -0.229
16,FANCI (UniProt Q9NVI1),inactive: 0.015
17,FKBPL (UniProt Q9UIM3),inactive: -0.047

# Compound: c1ccc([C@@H]2C[C@H]2NC2CCNCC2)cc1
# Experiment: as above
# Method in brief: as §1
row,Target,log2 fold change
1,FGGY isoform 3 (UniProt Q96C11),inactive: 0.091
2,FHL3 (UniProt Q13643),inactive: -0.033
3,FEZ2 isoform 2 (UniProt Q9UHY8),inactive: 0.116
4,FBL (UniProt P22087),inactive: -0.012
5,FN3K (UniProt Q9H479),inactive: 0.038
6,FERMT3 (UniProt Q86UX7),inactive: -0.016
7,FNBP1L (UniProt Q5T0N5),inactive: 0.029
8,FDXR isoform 7 (UniProt P22570),inactive: 0.011
9,FDX2 (UniProt Q6P4F2),inactive: -0.05
10,FKBP15 (UniProt Q5T1M5),inactive: -0.03
11,FAM89A (UniProt Q96GI7),inactive: 0.012
12,FLT4 (UniProt P35916),inactive: -0.408
13,FIG4 (UniProt Q92562),inactive: -0.037
14,FEN1 (UniProt P39748),inactive: 0.022
15,FAM98A (UniProt Q8NCA5),inactive: 0.02
16,FLNB isoform 8 (UniProt O75369),inactive: -0.025
17,FH (UniProt P07954),inactive: 0.058

row,Target,log2 fold change
1,FMC1 (UniProt Q96HJ9),inactive: 0.032
2,FAM98B (UniProt Q52LJ0),inactive: 0.028
3,FBXW9 (UniProt Q5XUX1),inactive: -0.04
4,FLVCR1 (UniProt Q9Y5Y0),inactive: -0.02
5,FCGR2A (UniProt P12318),inactive: -0.05
6,FLOT1 (UniProt O75955),inactive: 0.015
7,FBXO42 (UniProt Q6P3S6),inactive: -0.027
8,FBXL20 (UniProt Q96IG2),inactive: -0.212
9,FBXL12 (UniProt Q9NXK8),inactive: -0.01
10,FGD6 (UniProt Q6ZV73),inactive: -0.001
11,FBRS (UniProt J3KNZ9),inactive: -0.006
12,FANCB (UniProt Q8NB91),inactive: -0.03
13,FKBP8 isoform 2 (UniProt Q14318),inactive: 0.043
14,FECH isoform 2 (UniProt P22830),inactive: -0.092
15,FANCI (UniProt Q9NVI1),inactive: 0.088
16,FKBPL (UniProt Q9UIM3),inactive: 0.01
